According to patent US5414001A, “Antineoplastic pyrrolo[4,3,2-de]quinolin-8(1H)-ones” (American Cyanamid Company, priority 1993, dated 1995):
At least one read-out could not be matched to a standard name with certainty.

System: panel of >20 human tumor cell lines
Assay: In vitro tumor panel evaluation, Sulforhodamine B (SRB) cytotoxicity assay
Type: cell-based
Settings: 48 hours

## 7-(Cyclohexylamino)-1,3,4,8-tetrahydro-5-methyl-8-oxo-pyrrolo[4,3,2-de]quinolinium trifluoroacetate [Example 41]
Least sensitive cell line
  MAX IC50: 50 µg/mL
Most sensitive cell line
  MIN IC50: 0.05 µg/mL
